The values are deposited in ChEMBL (CHEMBL3988442, “University of Dundee, Small-Polar-MMV Screening Library” (2021)).

By UniProt entry, the sequences of proteins in these tests, tags left out. Residues count along the entry.
UniProt I6X8D2, whole entry: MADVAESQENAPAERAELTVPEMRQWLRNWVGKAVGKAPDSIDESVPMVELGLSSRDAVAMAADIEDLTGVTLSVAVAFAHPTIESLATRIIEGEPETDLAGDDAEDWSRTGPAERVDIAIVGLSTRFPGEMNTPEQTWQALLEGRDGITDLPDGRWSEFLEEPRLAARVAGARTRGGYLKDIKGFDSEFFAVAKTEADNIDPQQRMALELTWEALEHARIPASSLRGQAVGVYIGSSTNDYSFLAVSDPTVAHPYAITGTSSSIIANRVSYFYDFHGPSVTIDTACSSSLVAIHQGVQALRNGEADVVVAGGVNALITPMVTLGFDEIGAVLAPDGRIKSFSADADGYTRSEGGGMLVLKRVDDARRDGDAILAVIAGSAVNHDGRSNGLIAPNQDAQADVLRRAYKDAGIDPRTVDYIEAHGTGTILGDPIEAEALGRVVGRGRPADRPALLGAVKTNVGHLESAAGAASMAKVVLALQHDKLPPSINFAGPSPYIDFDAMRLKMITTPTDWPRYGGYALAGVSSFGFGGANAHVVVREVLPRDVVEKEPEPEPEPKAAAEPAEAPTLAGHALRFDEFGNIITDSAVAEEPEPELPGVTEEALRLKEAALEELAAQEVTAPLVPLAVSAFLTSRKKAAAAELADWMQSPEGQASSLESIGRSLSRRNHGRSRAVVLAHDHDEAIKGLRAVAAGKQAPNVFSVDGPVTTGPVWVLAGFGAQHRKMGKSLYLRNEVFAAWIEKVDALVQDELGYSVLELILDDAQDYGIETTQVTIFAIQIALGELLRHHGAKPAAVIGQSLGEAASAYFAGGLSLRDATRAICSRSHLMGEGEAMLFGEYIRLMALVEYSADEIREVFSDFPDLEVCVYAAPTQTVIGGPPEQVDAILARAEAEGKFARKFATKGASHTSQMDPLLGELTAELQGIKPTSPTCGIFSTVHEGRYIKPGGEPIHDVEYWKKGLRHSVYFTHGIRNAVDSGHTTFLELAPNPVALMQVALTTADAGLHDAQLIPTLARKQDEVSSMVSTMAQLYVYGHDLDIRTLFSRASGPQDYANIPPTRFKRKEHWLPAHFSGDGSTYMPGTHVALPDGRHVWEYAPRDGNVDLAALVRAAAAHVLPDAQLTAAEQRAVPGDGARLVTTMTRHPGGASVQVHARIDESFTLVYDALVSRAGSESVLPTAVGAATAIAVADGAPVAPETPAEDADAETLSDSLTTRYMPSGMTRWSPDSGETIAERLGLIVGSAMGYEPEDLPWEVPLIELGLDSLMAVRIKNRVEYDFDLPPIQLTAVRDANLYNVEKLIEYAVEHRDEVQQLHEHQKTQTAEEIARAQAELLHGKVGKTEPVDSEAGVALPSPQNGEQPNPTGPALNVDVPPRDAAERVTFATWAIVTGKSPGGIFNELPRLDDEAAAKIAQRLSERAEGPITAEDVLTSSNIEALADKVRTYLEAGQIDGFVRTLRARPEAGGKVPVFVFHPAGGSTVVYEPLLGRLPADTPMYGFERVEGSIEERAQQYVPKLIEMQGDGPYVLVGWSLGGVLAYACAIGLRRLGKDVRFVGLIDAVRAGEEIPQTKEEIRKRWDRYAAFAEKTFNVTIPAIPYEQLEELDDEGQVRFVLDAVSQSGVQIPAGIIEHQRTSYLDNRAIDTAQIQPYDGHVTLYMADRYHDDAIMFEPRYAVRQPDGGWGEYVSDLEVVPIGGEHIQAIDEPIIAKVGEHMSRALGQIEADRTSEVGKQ
UniProt A4I591, 1-473: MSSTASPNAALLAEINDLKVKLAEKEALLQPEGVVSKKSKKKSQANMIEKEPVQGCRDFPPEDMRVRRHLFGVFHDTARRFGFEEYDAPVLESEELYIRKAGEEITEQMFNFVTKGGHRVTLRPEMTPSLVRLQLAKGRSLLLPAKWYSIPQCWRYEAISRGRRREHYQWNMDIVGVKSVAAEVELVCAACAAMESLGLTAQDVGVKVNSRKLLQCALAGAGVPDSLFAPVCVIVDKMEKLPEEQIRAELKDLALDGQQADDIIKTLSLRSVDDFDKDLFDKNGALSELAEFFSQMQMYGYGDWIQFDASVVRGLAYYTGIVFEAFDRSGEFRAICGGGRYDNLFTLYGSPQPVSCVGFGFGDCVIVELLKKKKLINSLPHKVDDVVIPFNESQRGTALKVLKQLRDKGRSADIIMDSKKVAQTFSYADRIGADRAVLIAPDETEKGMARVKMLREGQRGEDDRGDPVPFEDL
UniProt P9WPC5, whole entry: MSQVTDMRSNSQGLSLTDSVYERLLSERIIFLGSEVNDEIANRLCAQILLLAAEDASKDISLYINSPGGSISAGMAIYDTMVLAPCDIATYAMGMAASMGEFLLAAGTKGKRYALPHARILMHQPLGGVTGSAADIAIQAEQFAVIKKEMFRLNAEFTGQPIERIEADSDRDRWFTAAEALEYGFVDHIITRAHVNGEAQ
UniProt P9WPC3, whole entry partner: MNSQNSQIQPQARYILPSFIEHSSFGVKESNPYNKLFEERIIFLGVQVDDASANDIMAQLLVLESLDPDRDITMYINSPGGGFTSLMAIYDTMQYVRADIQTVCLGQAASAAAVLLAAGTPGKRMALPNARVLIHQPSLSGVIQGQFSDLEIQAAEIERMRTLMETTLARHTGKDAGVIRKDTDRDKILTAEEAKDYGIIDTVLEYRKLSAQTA
UniProt P9WNZ1, whole entry: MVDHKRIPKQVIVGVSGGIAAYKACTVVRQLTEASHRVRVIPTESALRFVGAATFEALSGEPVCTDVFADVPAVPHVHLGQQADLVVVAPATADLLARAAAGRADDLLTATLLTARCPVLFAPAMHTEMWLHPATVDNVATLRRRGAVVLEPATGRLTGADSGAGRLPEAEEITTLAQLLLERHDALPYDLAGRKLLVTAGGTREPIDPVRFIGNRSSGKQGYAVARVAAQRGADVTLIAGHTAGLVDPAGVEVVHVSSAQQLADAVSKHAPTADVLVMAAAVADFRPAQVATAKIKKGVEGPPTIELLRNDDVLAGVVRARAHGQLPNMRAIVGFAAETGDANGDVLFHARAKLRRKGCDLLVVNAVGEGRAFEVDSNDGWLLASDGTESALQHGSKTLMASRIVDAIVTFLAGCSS

Pks13 thioesterase: 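Enzyme assay of the thioesterase domain of polyketide synthase 13; the read-out is not stated. Target: Polyketide synthase Pks13, Mycobacterium tuberculosis (UniProt I6X8D2). Tested at 30 µM. The record gives no direction; the compounds picked for IC50 retests had high values, so higher reads as stronger inhibition. About 67,000 compounds were tested under these conditions; 0.46% (about 300) showed 50% or more at least once.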
LiHisRS: 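Enzyme assay of histidyl-tRNA synthetase; the read-out is not stated. Target: Histidine-tRNA ligase, Leishmania infantum (UniProt A4I591). Concentration: 30 µM. Direction is inferred from retests: higher values go with stronger inhibition. The assay is labelled LdHisRS but filed under L. infantum. About 69,000 compounds were tested under these conditions; 0.6% (about 410) showed 50% or more at least once.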
Leishmania in macrophages: 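Cell assay of Leishmania donovani living inside macrophages; the read-out is not stated. Concentration: 30 µM. The record gives no direction; compounds that gave an IC50 in retests scored well above the rest, so higher reads as stronger inhibition. About 69,000 compounds were tested under these conditions; 1.5% (about 1,000) showed 50% or more at least once.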
ClpP1P2: 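ClpP1P2, Mycobacterium tuberculosis (UniProt P9WPC5 and UniProt P9WPC3). Protease assay of ClpP1P2, read by the AMC dye that it sets free. Concentration: 50 µM. Direction is inferred from only a few compounds that gave an IC50; most scored high, so higher reads as stronger inhibition. Most other retested compounds had strongly negative values. About 69,000 compounds were tested under these conditions; 0.015% (about 10) showed 50% or more at least once.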
Toxoplasma: 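Assay of Toxoplasma gondii numbers, read through their beta-galactosidase reporter with a colour substrate. Tested at 10 µM. Higher reads as fewer parasites (inferred from which compounds were picked for retests). About 67,000 compounds were tested under these conditions; 0.38% (about 260) showed 50% or more at least once.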
CoaBC: 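Coenzyme A biosynthesis protein CoaBC, Mycobacterium tuberculosis (UniProt P9WNZ1). Enzyme assay of CoaBC with a phosphate dye (Biomol Green) read at 650 nm. Tested at 30 µM. Direction is inferred from only a few compounds that gave an IC50; most scored high, so higher reads as stronger inhibition. Most strong results did not repeat in a second test. About 67,000 compounds were tested under these conditions; 0.06% (about 40) showed 50% or more at least once.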

Results are given as percent effect. The record does not define 0% and 100%; most values in the screen are far below 50% and negative numbers occur (in some assays of this library far below -100). The compounds are a random part of those screened. Two or more numbers in one place are separate tests of the same structure; such repeats can differ widely. A dash means the value is not listed here; it may have been measured.

| SMILES | Pks13 thioesterase | LiHisRS | Leishmania in macrophages | ClpP1P2 | Toxoplasma | CoaBC |
|---|---|---|---|---|---|---|
| `CC(c1nc(C2CC2)no1)N(C)Cc1cccc(F)c1` (stereo unspecified) | - | 9.859 | 0.01687 | -0.6355 | -1.265 | 4.577 |
| `CC(=O)Nc1nc(C2CCN(C(=O)c3cccnc3)CC2)cs1` | -16.37 | 12.41 | -8.966 | 12.57 | 1.941 | 4.922 |
| `Cc1nccn1CCN(C)C(=O)c1cn(-c2ccccc2)nn1` | 5.103 | 10.84 | -62.63 | 13.89 | 15.57 | -0.3764 |
| `O=C(CN1CC(c2nc(C3CC3)no2)C1)NCc1ccc(F)cc1.O=C(O)C(=O)O` | - | - | 25.02 | - | -18.13 | - |
| `Cc1cnc2c(c1NCc1ccc(F)cc1)c(=O)n(C)c(=O)n2C` | -1.51 | 25.64 | -16.76 & -26.91 | 0.7086 | -15.7 | 1.527 |
| `CCOC(=O)N1CCN(C(=O)c2sc(-c3ccc(F)cc3)nc2C)CC1` | -0.5522 | 13.33 | 26.01 | 9.875 | 5.086 | 4.386 |
| `O=C1CC(c2ccccc2)C2(CCN(CC3CC3)CC2)N1` (stereo unspecified) | -15.5 | 20.75 | - | 10.38 | - | 4.695 |
| `CC(=O)N1CCC[C@@H](NCc2cccc(F)c2)[C@@H]1c1ccc(C)s1` | 9.939 | 10.34 | - | -12.55 | - | -3.832 |
| `O=C(CCN1CCCN(c2nccs2)CC1)Nc1ccccc1` | -10.2 | 6.757 | 13.32 | 0.4629 | 10.15 | 0.3911 |
| `Cc1cc(C(=O)N2CCc3nc4sc(C)cc4c(=O)n3CC2)on1` | -11.66 | 6 | -12.52 | -5.552 | 10.32 | 0.6196 |
| `Cc1ccc(C)c2c(O)cc(CNCC(=O)N3CCCC3)nc12` | -9.8 | 16.67 | -18.8 | 6.83 | 11.25 | -2.211 |
| `CCc1ccc(-c2nn3c(nc2=O)-c2ccccc2NC3C(=O)O)cc1` (stereo unspecified) | -21.7 | 26.76 | 23.36 | 18.43 | 15.02 | 11.44 |
| `CCS(=O)(=O)N1CCCC(Cc2cnccn2)C1` (stereo unspecified) | -7.249 | 10.14 | 6.574 & 1.171 | -5.701 | 17.61 | 0.9709 |
| `Cn1cccc1C(=O)N1CC[C@H]2[C@@H]1CCC(=O)N2c1ccccc1` | -28.76 | 28.07 | - | 6.303 | - | 1.903 |
| `CN1CCCC1c1ccc(C(=O)Nc2c3c(nn2C)CCC3)s1` (stereo unspecified) | -16.83 | -8.696 | 2.045 | -14.32 | - | -1.337 |
| `CCCc1ccc(S(=O)(=O)Nc2ccc(=O)n(C)c2)cc1` | 0.3141 | 29.09 | 20.55 | -13.29 | 6.86 | 6.888 |
| `O=C(c1cccc2cn[nH]c12)N1CCCC1c1noc(C2CC2)n1` (stereo unspecified) | -11.22 | 10.71 | 15.3 | -28.3 | -29.66 | 1.136 |
| `Cn1ncc2c(NC3CCCN(C(=O)C4CC4)C3)nc(C(C)(C)C)nc21` (stereo unspecified) | -0.1516 | -2.174 | -38.63 | -1.165 | - | -3.281 |
| `O=c1c(S(=O)(=O)N2CCCC2)cccn1Cc1c(F)cccc1Cl` | -22.33 | 21.51 | -7.358 | 13.93 | 3.29 | 4.377 |
| `CCSc1ccc(NC(=O)NC(C)c2c(C)noc2C)cn1` (stereo unspecified) | -18.28 | 20 | -3.957 | 0.3916 | 6.613 | - |
| `COc1ccc(COCC(O)CNC(=O)c2ccc(C)c(F)c2)cc1` (stereo unspecified) | -12.62 | 6.087 | 9.174 | -20.9 | -10.24 | 0.8906 |
| `Cc1noc(C(C)C)c1C(=O)NCCCN1CCCC1` | 1.224 | 28.12 | 18.95 | 2.217 | 1.224 | 4.216 |
| `COCc1cccc(CNC(=O)c2c(C)noc2C(C)C)c1` | -209.7 | 10.43 | -22.76 | 11.44 | -14.14 | 5.032 |
| `CS(=O)(=O)N1CCCC1Cn1cccn1` (stereo unspecified) | - | 10.34 | 4.151 | -6.095 | -7.496 | 16.44 |
| `CC(=O)NC(C)CC(=O)NCc1cccnc1Oc1ccccc1C` (stereo unspecified) | -7.083 | 24.04 | 20.31 | 1.222 | -5.525 | 5.485 |
| `CC1(C)Cc2nc(C(C)(C)C)ncc2C(NC(=O)C2(N)CC2)C1` (stereo unspecified) | -16.12 | 30.12 | -17.37 | 8.216 | -3.475 | 12.17 |
| `Cc1cc(N2CCC(N(C)Cc3cc(=O)c(O)co3)CC2)nc(C)n1` | -30.08 | 5 | -24.93 | 2.575 | -2.812 | 2.439 |
| `CCN(CC)Cc1ccc(C(=O)N2CCN(CC(C)O)CC2)o1` (stereo unspecified) | -11.06 | 1.818 | 28.03 | -5.707 | 5.903 | 2.551 |
| `CCc1noc(CNCC2CCCN2c2cccnn2)n1` (stereo unspecified) | -9.328 | 23.89 | 0.6344 | -42.46 | -0.4955 | 5.483 |
| `Cc1nn(CC(=O)N2CCN(c3ccncc3)CC2)c(C)c1Cl` | -54.09 | 17.14 | 6.25 | -9.017 | 3.167 | 6.343 |
| `CN1CCOC(C(=O)Nc2nc(-c3ccc(Cl)cc3)n[nH]2)C1` (stereo unspecified) | - | 6.579 | -8.355 | -8.306 | 3.686 | 2.581 |
| `CNS(=O)(=O)c1cccc(CNc2cc(C(F)(F)F)ccn2)c1` | -47.97 | 7.143 | 27.33 | -0.009983 | -1.436 | 3.203 |

Some entries from above, unchanged:

* CCc1ccc(-c2nn3c(nc2=O)-c2ccccc2NC3C(=O)O)cc1 (stereo unspecified) | Pks13 thioesterase: -21.7%; LiHisRS: 26.76%; Leishmania in macrophages: 23.36%; ClpP1P2: 18.43%; Toxoplasma: 15.02%; CoaBC: 11.44%
* CC(=O)NC(C)CC(=O)NCc1cccnc1Oc1ccccc1C (stereo unspecified) | Pks13 thioesterase: -7.083%; LiHisRS: 24.04%; Leishmania in macrophages: 20.31%; ClpP1P2: 1.222%; Toxoplasma: -5.525%; CoaBC: 5.485%